Among the data in article PMC3103425 are binding values, retold here.

Protein sequences, listed by entry. Tags and fused reporters are not part of them. Lines headed by an entry give the natural chain unless they say otherwise; changes in a name come on top.
UniProt F5BCS3: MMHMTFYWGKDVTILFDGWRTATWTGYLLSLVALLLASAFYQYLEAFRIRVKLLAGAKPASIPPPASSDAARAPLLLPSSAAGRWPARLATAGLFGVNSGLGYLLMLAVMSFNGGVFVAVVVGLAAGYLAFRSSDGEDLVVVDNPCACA
UniProt Q60EN8: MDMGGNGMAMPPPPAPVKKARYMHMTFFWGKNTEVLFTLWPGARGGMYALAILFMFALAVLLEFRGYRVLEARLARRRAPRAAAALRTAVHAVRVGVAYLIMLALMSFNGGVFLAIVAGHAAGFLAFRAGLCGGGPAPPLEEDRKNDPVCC
UniProt Q94EE4: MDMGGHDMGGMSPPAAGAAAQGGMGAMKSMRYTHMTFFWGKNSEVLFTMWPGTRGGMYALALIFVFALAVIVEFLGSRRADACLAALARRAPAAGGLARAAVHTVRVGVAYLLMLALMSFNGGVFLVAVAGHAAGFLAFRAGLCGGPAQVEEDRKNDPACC

No constants are given. Whether binding was seen depends on the method and setting. For some of these results: Binding can be weak; no strength is given.

Holding throughout (assay): two-hybrid; split-ubiquitin membrane yeast two-hybrid (MoBiTec kit); Cub and NubG fusion constructs co-transformed into yeast strain NMY51; read by growth on medium lacking His or Ade and by beta-galactosidase activity
In test [1] the target is rice COPT3 (rice (Oryza sativa ssp. japonica)) (UniProt Q10KT6).
Test [2] addresses rice COPT7 (rice (Oryza sativa ssp. japonica)) (UniProt F5BCS3).
Test [3] deals with rice COPT2 (rice (Oryza sativa ssp. japonica)) (UniProt Q5ZD08).
For test [4], the target named is rice COPT5 (rice (Oryza sativa ssp. japonica)) (UniProt Q60EN8).
The target of test [5] is rice COPT4 (rice (Oryza sativa ssp. japonica)) (UniProt Q7XTF8).
The target in test [6] is Alg5 (UniProt P40350).

As to rice COPT1 (from UniProt Q94EE4), the binding result in test [1] is given as “no binding”; in test [2] it was “no binding”; in test [3] it was “no binding”; in test [4] it was “binds”; in test [5], “no binding”.
In the case of rice COPT2 (from UniProt Q5ZD08), the binding entry in test [6] was “binds”; in test [1] it was “no binding”; in test [2], “no binding”; in test [4] it was “no binding”; in test [5], “no binding”.
Take rice COPT3 (from UniProt Q10KT6): the binding entry was “binds” in test [6], “no binding” in test [2], “no binding” in test [4] and “no binding” in test [5].
On to rice COPT4 (from UniProt Q7XTF8), for which the binding entry is listed as “binds” in test [6], “no binding” in test [2] and “no binding” in test [4].
For the substance rice COPT5 (from UniProt Q60EN8), in test [2], the binding result is given as “no binding”.
On to rice COPT7 (from UniProt F5BCS3), for which the binding result in test [6] is reported as “binds”.
